Reference: PMC4991465
These are yes or no findings as the source states them, for the method shown. Binding seen in cells or lysates may run through a third protein. A result given as binding can be weak or reduced; the word gives no strength.

T1: endogenous Cdc25A (human (endogenous in HEK 293T)) (UniProt P30304)
T1 sequence: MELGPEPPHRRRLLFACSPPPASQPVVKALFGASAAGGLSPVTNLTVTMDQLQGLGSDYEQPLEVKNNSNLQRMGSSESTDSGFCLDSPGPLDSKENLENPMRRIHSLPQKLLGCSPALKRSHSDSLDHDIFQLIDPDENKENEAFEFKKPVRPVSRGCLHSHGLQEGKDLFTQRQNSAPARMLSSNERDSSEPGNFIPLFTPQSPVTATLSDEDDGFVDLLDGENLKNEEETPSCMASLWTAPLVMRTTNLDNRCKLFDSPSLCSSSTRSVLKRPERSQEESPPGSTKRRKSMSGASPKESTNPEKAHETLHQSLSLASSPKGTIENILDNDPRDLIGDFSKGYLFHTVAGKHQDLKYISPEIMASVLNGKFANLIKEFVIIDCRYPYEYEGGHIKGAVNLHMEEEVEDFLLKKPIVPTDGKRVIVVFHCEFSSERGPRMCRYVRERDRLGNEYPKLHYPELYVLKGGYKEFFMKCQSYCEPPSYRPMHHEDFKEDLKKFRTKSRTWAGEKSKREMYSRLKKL

B1: endogenous Cdc25A (enzyme, UniProt P30304 1-524)
chain: T1 sequence

What was measured:
[1] = target: T1, endogenous Cdc25A (human (endogenous in HEK 293T)); test: co-IP; endogenous proteins, HEK 293T lysates in RIPA buffer with DNase I; anti-Cdc25A, anti-ARD1 or anti-HDAC11 with Protein G Plus/Protein A beads, 18 h at 4°C; washes with 200 μg/ml ethidium bromide; normal IgG as control
[2] = target: endogenous ARD1 (human (endogenous in HEK 293T)); test: as above

Molecule	binding [1]	binding [2]
endogenous ARD1 (human (endogenous in HEK 293T)) (enzyme)	binds	–
B1	–	binds
